Measured values published in paper PMC12209437.
No constants are given. Whether binding was seen depends on the method and setting. Binding seen in cells or lysates may run through a third protein. Some entries that bind do so weakly or less than the wild type.

Amino acid sequences for entries named in this document (tags omitted).
UniProt P01106: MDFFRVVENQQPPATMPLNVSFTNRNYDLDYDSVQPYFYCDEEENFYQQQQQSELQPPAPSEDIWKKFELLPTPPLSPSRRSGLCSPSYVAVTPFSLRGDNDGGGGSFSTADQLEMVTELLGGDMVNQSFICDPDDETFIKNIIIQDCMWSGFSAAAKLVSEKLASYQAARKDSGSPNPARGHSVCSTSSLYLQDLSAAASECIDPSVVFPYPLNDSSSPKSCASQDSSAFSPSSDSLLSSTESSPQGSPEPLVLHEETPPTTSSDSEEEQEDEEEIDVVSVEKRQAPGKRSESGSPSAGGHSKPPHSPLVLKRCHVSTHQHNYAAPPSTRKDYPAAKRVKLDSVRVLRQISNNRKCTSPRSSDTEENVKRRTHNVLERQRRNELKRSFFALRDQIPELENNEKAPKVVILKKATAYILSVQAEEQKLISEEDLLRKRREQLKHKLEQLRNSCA

Key:
[1] = target: endogenous c-MYC (human (endogenous in HCT-116 and patient-derived CRC-SCs)) (UniProt P01106); test: co-IP; endogenous proteins, HCT-116 cell lysate (50 mM Tris-HCl pH 7.4, 5 mM EDTA, 250 mM NaCl, 1% Triton X-100), anti-SMYD3 or anti-c-MYC on Dynabeads Protein A, IgG as negative control
[2] = target: endogenous c-MYC (human (endogenous in HCT-116 and patient-derived CRC-SCs)) (UniProt P01106); test: co-IP; endogenous proteins, whole-cell lysates of patient-derived CRC-SCs, anti-SMYD3 or anti-c-MYC on Dynabeads Protein A, IgG as negative control; also after treatment with the covalent SMYD3 inhibitor EM127, which did not prevent complex formation (Supplementary Fig. 4f)

B1: endogenous SMYD3 (enzyme, UniProt Q9H7B4 1-428)
chain: MEPLKVEKFATAKRGNGLRAVTPLRPGELLFRSDPLAYTVCKGSRGVVCDRCLLGKEKLMRCSQCRVAKYCSAKCQKKAWPDHKRECKCLKSCKPRYPPDSVRLLGRVVFKLMDGAPSESEKLYSFYDLESNINKLTEDKKEGLRQLVMTFQHFMREEIQDASQLPPAFDLFEAFAKVICNSFTICNAEMQEVGVGLYPSISLLNHSCDPNCSIVFNGPHLLLRAVRDIEVGEELTICYLDMLMTSEERRKQLRDQYCFECDCFRCQTQDKDADMLTGDEQVWKEVQESLKKIEELKAHWKWEQVLAMCQAIISSNSERLPDINIYQLKVLDCAMDACINLGLLEEALFYGTRTMEPYRIFFPGSHPVRGVQVMKVGKLQLHQGMFPQAMKNLRLAFDIMRVTHGREHSLIEDLILLLEECDANIRAS
With B1 the binding [1] was “binds” and the binding [2] was “binds”.
